# According to the supplement of paper PMC8728848:
# The other results are listed elsewhere or left out.
# Columns and labels:
# Experiment in all cases: glycan array binding signal (z-score within array); higher = stronger binding
# Details in all cases: glycan notation: IUPAC condensed, linker removed
# [1] = biological target: Man(a1-3)[Man(a1-6)]Man(a1-6)[Man(a1-2)Man(a1-3)]Man(b1-4)GlcNAc(b1-4)GlcNAc
# Method in brief: (§1)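 The binding signal is a Z-score computed within each array and averaged over linkers. Arrays of the same protein sequence at different concentrations or buffers were also averaged together. Data originate from 3228 arrays in the Consortium for Functional Glycomics database, kept only where the protein sequence was available.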
# [2] = biological target: Man(a1-3)[Man(a1-6)]Man(a1-6)[Man(a1-3)]Man
# Method in brief: as §1
# [3] = biological target: Man(a1-3)[Man(a1-6)]Man(a1-6)[Man(a1-3)]Man(b1-4)GlcNAc(b1-4)GlcNAc
# Method in brief: as §1
# [4] = biological target: Man(a1-3)[Man(a1-6)]Man(b1-4)GlcNAc(b1-4)GlcNAc
# Method in brief: as §1
# [5] = biological target: Man(a1-3)[Man(a1-6)]Man(b1-4)GlcNAc(b1-4)[Fuc(a1-6)]GlcNAc
# Method in brief: as §1
# [6] = biological target: Man(a1-6)Man
# Method in brief: as §1
# [7] = biological target: Man(b1-4)GlcNAc
# Method in brief: as §1
# [8] = biological target: MurNAc(b1-4)GlcNAc
# Method in brief: as §1
# [9] = biological target: Neu5Ac(a2-3)Gal
# Method in brief: as §1
# [10] = biological target: Neu5Ac(a2-3)Gal(b1-3)GalNAc
# Method in brief: as §1
# [11] = biological target: Neu5Ac(a2-3)Gal(b1-3)GalNAc(b1-3)Gal(a1-4)Gal(b1-4)Glc
# Method in brief: as §1
# [12] = biological target: Neu5Ac(a2-3)Gal(b1-3)GalNAc(b1-4)[Neu5Ac(a2-3)]Gal(b1-4)Glc
# Method in brief: as §1
# [13] = biological target: Neu5Ac(a2-3)Gal(b1-3)GalNAc(b1-4)[Neu5Ac(a2-8)Neu5Ac(a2-3)]Gal(b1-4)Glc
# Method in brief: as §1
# [14] = biological target: Neu5Ac(a2-3)Gal(b1-3)GalNAc6S
# Method in brief: as §1
# [15] = biological target: Neu5Ac(a2-3)Gal(b1-3)GlcNAc
# Method in brief: as §1
# [16] = biological target: Neu5Ac(a2-3)Gal(b1-3)GlcNAc(b1-2)Man
# Method in brief: as §1
# [17] = biological target: Neu5Ac(a2-3)Gal(b1-3)GlcNAc(b1-2)Man(a1-3)[GlcNAc(b1-4)][Neu5Ac(a2-3)Gal(b1-3)GlcNAc(b1-2)Man(a1-6)]Man(b1-4)GlcNAc(b1-4)GlcNAc
# Method in brief: as §1
# [18] = biological target: Neu5Ac(a2-3)Gal(b1-3)GlcNAc(b1-2)Man(a1-3)[Neu5Ac(a2-3)Gal(b1-3)GlcNAc(b1-2)Man(a1-6)]Man(b1-4)GlcNAc(b1-4)GlcNAc
# Method in brief: as §1
# [19] = biological target: Neu5Ac(a2-3)Gal(b1-3)GlcNAc(b1-3)Gal(b1-3)GlcNAc
# Method in brief: as §1
# [20] = biological target: Neu5Ac(a2-3)Gal(b1-3)GlcNAc(b1-3)Gal(b1-4)GlcNAc
# Method in brief: as §1
# [21] = biological target: Neu5Ac(a2-3)Gal(b1-3)GlcNAc(b1-3)GalNAc
# Method in brief: as §1
# [22] = biological target: Neu5Ac(a2-3)Gal(b1-3)GlcNAc(b1-4)Gal(b1-4)Glc
# Method in brief: as §1
# [23] = biological target: Neu5Ac(a2-3)Gal(b1-3)GlcNAc(b1-6)GalNAc
# Method in brief: as §1
# [24] = biological target: Neu5Ac(a2-3)Gal(b1-3)GlcNAc6S
# Method in brief: as §1
# [25] = biological target: Neu5Ac(a2-3)Gal(b1-3)[Fuc(a1-4)]GlcNAc
# Method in brief: as §1
# [26] = biological target: Neu5Ac(a2-3)Gal(b1-3)[Fuc(a1-4)]GlcNAc(b1-3)Gal(b1-3)[Fuc(a1-4)]GlcNAc
# Method in brief: as §1
# [27] = biological target: Neu5Ac(a2-3)Gal(b1-3)[Fuc(a1-4)]GlcNAc(b1-3)Gal(b1-4)[Fuc(a1-3)]GlcNAc
# Method in brief: as §1
# [28] = biological target: Neu5Ac(a2-3)Gal(b1-3)[GlcNAc(b1-6)]GalNAc
# Method in brief: as §1
# [29] = biological target: Neu5Ac(a2-3)Gal(b1-3)[Neu5Ac(a2-6)]GalNAc
# Method in brief: as §1
# [30] = biological target: Neu5Ac(a2-3)Gal(b1-3)[Neu5Ac(a2-6)]GlcNAc(b1-3)[Fuc(a1-3)[Gal(b1-4)]GlcNAc(b1-6)]Gal(b1-4)Glc
# Method in brief: as §1
# [31] = biological target: Neu5Ac(a2-3)Gal(b1-3)]Neu5Ac(a2-3)Gal(b1-4)]GlcNAc
# Method in brief: as §1
# [32] = biological target: Neu5Ac(a2-3)Gal(b1-4)Glc
# Method in brief: as §1
# [33] = biological target: Neu5Ac(a2-3)Gal(b1-4)GlcNAc
# Method in brief: as §1
# [34] = biological target: Neu5Ac(a2-3)Gal(b1-4)GlcNAc(b1-2)Man
# Method in brief: as §1
# [35] = biological target: Neu5Ac(a2-3)Gal(b1-4)GlcNAc(b1-2)Man(a1-3)[GlcNAc(b1-4)][Neu5Ac(a2-3)Gal(b1-4)GlcNAc(b1-2)Man(a1-6)]Man(b1-4)GlcNAc(b1-4)GlcNAc
# Method in brief: as §1
# [36] = biological target: Neu5Ac(a2-3)Gal(b1-4)GlcNAc(b1-2)Man(a1-3)[Neu5Ac(a2-3)Gal(b1-4)GlcNAc(b1-2)Man(a1-6)]Man(b1-4)GlcNAc(b1-4)GlcNAc
# Method in brief: as §1
# [37] = biological target: Neu5Ac(a2-3)Gal(b1-4)GlcNAc(b1-2)Man(a1-3)[Neu5Ac(a2-3)Gal(b1-4)GlcNAc(b1-2)Man(a1-6)]Man(b1-4)GlcNAc(b1-4)[Fuc(a1-6)]GlcNAc
# Method in brief: as §1
# [38] = biological target: Neu5Ac(a2-3)Gal(b1-4)GlcNAc(b1-2)Man(a1-3)[Neu5Ac(a2-6)Gal(b1-4)GlcNAc(b1-2)Man(a1-6)]Man(b1-4)GlcNAc(b1-4)GlcNAc
# Method in brief: as §1
binder,measurement,setting,value
SP15308C-bot-338-23-338 (Bacteroides ovatus) (protein) DEWTDEQFKQLISFKTQPGGWGVTDVHVRYANSAKYTYNLPVLVSGSTDNTDDRLVSFSLRDDTLDILNFEKFGNRPELYFRELPQKYYSFPKELTIPAGQSHALLPIEFSLDGLDDSQKWALPLKVCEDANGTYAVNPRKYYRTAVLRPILFNEFSGRFSGSSLLGTMAGESDIKFSSTEIKLNVVTDSIVFFYAGQRTEDYEDRINYKVFLQFTGDKVDSKKDLYKMKIWAENEKLKFNSYSTPTYKVSSEMDATKTYLKHTYIVISDIDFDFVDYTSVPNYEIEYNMKGGLSVSRDLDTRKPDEDQGSDSKWW,glycan array binding signal (z-score),[1],1.29
same,glycan array binding signal (z-score),[2],0.294
same,glycan array binding signal (z-score),[3],0.16
same,glycan array binding signal (z-score),[4],-0.277
same,glycan array binding signal (z-score),[5],0.051
same,glycan array binding signal (z-score),[6],-0.507
same,glycan array binding signal (z-score),[7],-0.86
same,glycan array binding signal (z-score),[8],-0.64
same,glycan array binding signal (z-score),[9],0.167
same,glycan array binding signal (z-score),[10],-0.043
same,glycan array binding signal (z-score),[11],-0.134
same,glycan array binding signal (z-score),[12],-0.631
same,glycan array binding signal (z-score),[13],-0.56
same,glycan array binding signal (z-score),[14],-0.22
same,glycan array binding signal (z-score),[15],0.243
same,glycan array binding signal (z-score),[16],-0.04
same,glycan array binding signal (z-score),[17],-0.079
same,glycan array binding signal (z-score),[18],0.192
same,glycan array binding signal (z-score),[19],-0.6
same,glycan array binding signal (z-score),[20],-0.278
same,glycan array binding signal (z-score),[21],-0.722
same,glycan array binding signal (z-score),[22],-0.338
same,glycan array binding signal (z-score),[23],-0.58
same,glycan array binding signal (z-score),[24],0.313
same,glycan array binding signal (z-score),[25],0.113
same,glycan array binding signal (z-score),[26],0.108
same,glycan array binding signal (z-score),[27],-0.887
same,glycan array binding signal (z-score),[28],0.217
same,glycan array binding signal (z-score),[29],-0.575
same,glycan array binding signal (z-score),[30],-0.841
same,glycan array binding signal (z-score),[31],-0.395
same,glycan array binding signal (z-score),[32],0.324
same,glycan array binding signal (z-score),[33],0.023
same,glycan array binding signal (z-score),[34],1.38
same,glycan array binding signal (z-score),[35],0.031
same,glycan array binding signal (z-score),[36],0.647
same,glycan array binding signal (z-score),[37],0.225
same,glycan array binding signal (z-score),[38],-0.479

# A run of entries taken from the entries so far:
binder,measurement,setting,value
SP15308C-bot-338-23-338 (Bacteroides ovatus) (protein) DEWTDEQFKQLISFKTQPGGWGVTDVHVRYANSAKYTYNLPVLVSGSTDNTDDRLVSFSLRDDTLDILNFEKFGNRPELYFRELPQKYYSFPKELTIPAGQSHALLPIEFSLDGLDDSQKWALPLKVCEDANGTYAVNPRKYYRTAVLRPILFNEFSGRFSGSSLLGTMAGESDIKFSSTEIKLNVVTDSIVFFYAGQRTEDYEDRINYKVFLQFTGDKVDSKKDLYKMKIWAENEKLKFNSYSTPTYKVSSEMDATKTYLKHTYIVISDIDFDFVDYTSVPNYEIEYNMKGGLSVSRDLDTRKPDEDQGSDSKWW,glycan array binding signal (z-score),[3],0.16
same,glycan array binding signal (z-score),[4],-0.277
same,glycan array binding signal (z-score),[5],0.051
